Test results: EP4786499A1 (Guangdong Fapon Biopharma Inc., dated 2026)

Biological target: cyno PD-1 (cyno)
Assay: FACS on CHO/cyno PD-1 cells

- binding: binds
B1: anti-PD1 antibody R1152 (antibody, human IgG1, kappa, L234A L235A, V domains shown)
VH: QVQLVQSGAEVKKPGASVKVSCKASGYTFTTYYMYWVRQAPGQGLEWMGGINPSNGGTNYAQKFQGRATMTVDTSTSTAYMELSSLRSEDTAVYYCTRRDSNYDGGFDYWGQGTTVTVSS
VL: DIQMTQSPSSLSASVGDRVTITCRASKSVSTSGYSYMHWYQQKPGKAPKLLIYLAYHLESGVPSRFSGSGSGTDFTLTISSLQPEDFATYYCQHSWELPITFGQGTKLEIKR
notes: also called PD1 monoclonal antibody R1152; PD-1 parent antibody

No constants are given. Whether binding was seen depends on the method and setting. A result given as binding can be weak or reduced; the word gives no strength.
